# According to publication PMC10042735:
# Where a chain is given by its changes, count along the chain named. Names and notes keep the numbering of the source. No constants are given. Whether binding was seen depends on the method and setting. Binding seen in cells or lysates may run through a third protein. Some results given as binding are weak or reduced against the parent protein; the word gives no strength. For some assays here: Sequences can lack the tags named with a protein.
# T1: KAT8, exogenous (tag not told in the text shown) (UniProt Q9H7Z6)
# T1 sequence: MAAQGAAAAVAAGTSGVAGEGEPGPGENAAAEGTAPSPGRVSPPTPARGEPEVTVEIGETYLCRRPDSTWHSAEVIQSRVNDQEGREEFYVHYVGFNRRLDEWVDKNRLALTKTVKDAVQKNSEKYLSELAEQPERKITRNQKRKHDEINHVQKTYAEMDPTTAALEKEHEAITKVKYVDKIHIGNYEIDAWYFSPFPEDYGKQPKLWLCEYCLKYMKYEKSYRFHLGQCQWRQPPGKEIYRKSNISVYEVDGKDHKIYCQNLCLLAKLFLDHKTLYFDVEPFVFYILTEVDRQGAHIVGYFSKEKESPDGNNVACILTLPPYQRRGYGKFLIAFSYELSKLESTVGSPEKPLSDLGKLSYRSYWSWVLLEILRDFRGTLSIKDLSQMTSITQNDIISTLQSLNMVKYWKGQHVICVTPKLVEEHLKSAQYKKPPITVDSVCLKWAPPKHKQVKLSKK
# T2: IRF1, exogenous (tag not told in the text shown), P10914
# T2 chain: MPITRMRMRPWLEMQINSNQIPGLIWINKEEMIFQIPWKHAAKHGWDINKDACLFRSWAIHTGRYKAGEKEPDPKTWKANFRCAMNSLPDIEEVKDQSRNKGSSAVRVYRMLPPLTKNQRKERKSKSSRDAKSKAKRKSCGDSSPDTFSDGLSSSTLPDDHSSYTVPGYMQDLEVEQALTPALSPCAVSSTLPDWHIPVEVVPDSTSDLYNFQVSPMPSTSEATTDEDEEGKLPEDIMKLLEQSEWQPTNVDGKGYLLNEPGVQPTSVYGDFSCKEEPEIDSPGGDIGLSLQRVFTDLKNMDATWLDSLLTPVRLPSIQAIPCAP
# T3: endogenous KAT8 (human (endogenous in A375 and 143B)) (UniProt Q9H7Z6)
# T3 sequence: T1 sequence
# B1: IRF1 K78R mutant, exogenous (tag not told in the text shown) (protein, UniProt P10914 1-325)
# chain: T2 chain with K78R
# B2: IRF1, exogenous (tag not told in the text shown) (protein, UniProt P10914 1-325)
# chain: T2 chain
# B3: IRF1, exogenous (tag not told in the text shown), P10914 1-325 (protein)
# chain: T2 chain
# B4: endogenous IRF1 (protein, UniProt P10914 1-325)
# chain: T2 chain
# Legend:
# [1] = biological target: T1, KAT8, exogenous (tag not told in the text shown); experiment: co-IP; HEK293T cells transiently cotransfected with the indicated constructs and analyzed by immunoprecipitation
# [2] = biological target: T1, KAT8, exogenous (tag not told in the text shown); experiment: co-IP; HEK293T cells transfected with the indicated constructs for 24 h; lysates precipitated with streptavidin or anti-MYC beads, blot
# [3] = biological target: T2, IRF1, exogenous (tag not told in the …); experiment: co-IP; HEK293T cells transiently cotransfected with the indicated constructs and analyzed by immunoprecipitation; details: remark: other sources report otherwise
# [4] = biological target: T3, endogenous KAT8 (human (endogenous in A375 and 143B)); experiment: co-IP; endogenous proteins in A375 cells treated with 100 U/ml IFNγ for 6 h
binder,measurement,setting,value
B1,binding,[1],binds
B2,binding,[1],binds
same,binding,[2],binds
B3,binding,[3],binds
B4,binding,[4],binds
